Assay results from publication PMC4004540.
No constants are given. Whether binding was seen depends on the method and setting. Binding seen in cells or lysates may run through a third protein. Some entries that bind do so weakly or less than the wild type. For part of these data: Where a sequence is shown, tags or fusion partners need not be part of it.

Chains of the proteins cited; added tags and fusions are not shown. Lines headed by an entry give the natural chain unless they say otherwise; changes in a name come on top. A line that says so, or that is headed by a name, gives the form on record, which may keep a tag or linker. Residues count along the entry.
UniProt P30051: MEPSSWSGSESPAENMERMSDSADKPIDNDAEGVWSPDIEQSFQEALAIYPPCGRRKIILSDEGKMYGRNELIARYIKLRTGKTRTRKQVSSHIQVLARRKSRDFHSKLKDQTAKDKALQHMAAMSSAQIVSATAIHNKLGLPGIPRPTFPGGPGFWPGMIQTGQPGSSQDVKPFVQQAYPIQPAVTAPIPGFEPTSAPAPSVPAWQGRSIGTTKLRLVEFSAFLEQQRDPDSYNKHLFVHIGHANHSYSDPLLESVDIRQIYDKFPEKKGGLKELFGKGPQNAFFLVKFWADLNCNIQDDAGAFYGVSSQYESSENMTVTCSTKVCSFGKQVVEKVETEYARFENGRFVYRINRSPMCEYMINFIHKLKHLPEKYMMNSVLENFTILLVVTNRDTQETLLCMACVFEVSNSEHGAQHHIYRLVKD
glutathione S-transferase fused to the TEA domain of mouse TEAD-1 (GST-TEA): residues 1-101 of P30051

T1: FLAG-tagged TRβ1 (pCMX-FLAG-rTRβ1) (UniProt P18113)
T1 sequence: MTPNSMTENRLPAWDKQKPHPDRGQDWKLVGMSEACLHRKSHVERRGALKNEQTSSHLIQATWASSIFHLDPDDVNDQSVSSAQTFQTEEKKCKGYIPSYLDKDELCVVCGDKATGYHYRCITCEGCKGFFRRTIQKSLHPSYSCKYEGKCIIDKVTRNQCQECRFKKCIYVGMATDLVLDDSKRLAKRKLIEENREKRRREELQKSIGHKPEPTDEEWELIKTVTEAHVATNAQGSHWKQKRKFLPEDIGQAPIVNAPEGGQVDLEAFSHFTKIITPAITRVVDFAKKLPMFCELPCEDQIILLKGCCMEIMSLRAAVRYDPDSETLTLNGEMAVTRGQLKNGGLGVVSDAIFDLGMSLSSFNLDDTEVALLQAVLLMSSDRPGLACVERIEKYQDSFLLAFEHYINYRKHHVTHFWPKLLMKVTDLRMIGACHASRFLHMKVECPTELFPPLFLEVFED

B1: human TRα1, in vitro translated (receptor, UniProt P10827-2 1-410)
chain: MEQKPSKVECGSDPEENSARSPDGKRKRKNGQCSLKTSMSGYIPSYLDKDEQCVVCGDKATGYHYRCITCEGCKGFFRRTIQKNLHPTYSCKYDSCCVIDKITRNQCQLCRFKKCIAVGMAMDLVLDDSKRVAKRKLIEQNRERRRKEEMIRSLQQRPEPTPEEWDLIHIATEAHRSTNAQGSHWKQRRKFLPDDIGQSPIVSMPDGDKVDLEAFSEFTKIITPAITRVVDFAKKLPMFSELPCEDQIILLKGCCMEIMSLRAAVRYDPESDTLTLSGEMAVKREQLKNGGLGVVSDAIFELGKSLSAFNLDDTEVALLQAVLLMSTDRSGLLCVDKIEKSQEAYLLAFEHYVNHRKHNIPHFWPKLLMKVTDLRMIGACHASRFLHMKVECPTELFPPLFLEVFEDQEV
modifications: 35S label
B2: human TRβ1 (wild type), in vitro translated (receptor, UniProt P10828-1 1-461)
chain: MTPNSMTENGLTAWDKPKHCPDREHDWKLVGMSEACLHRKSHSERRSTLKNEQSSPHLIQTTWTSSIFHLDHDDVNDQSVSSAQTFQTEEKKCKGYIPSYLDKDELCVVCGDKATGYHYRCITCEGCKGFFRRTIQKNLHPSYSCKYEGKCVIDKVTRNQCQECRFKKCIYVGMATDLVLDDSKRLAKRKLIEENREKRRREELQKSIGHKPEPTDEEWELIKTVTEAHVATNAQGSHWKQKRKFLPEDIGQAPIVNAPEGGKVDLEAFSHFTKIITPAITRVVDFAKKLPMFCELPCEDQIILLKGCCMEIMSLRAAVRYDPESETLTLNGEMAVTRGQLKNGGLGVVSDAIFDLGMSLSSFNLDDTEVALLQAVLLMSSDRPGLACVERIEKYQDSFLLAFEHYINYRKHHVTHFWPKLLMKVTDLRMIGACHASRFLHMKVECPTELFPPLFLEVFED
modifications: 35S-methionine label

Columns and labels:
[1] = target: T1, FLAG-tagged TRβ1 (pCMX-FLAG-rTRβ1); experiment: co-IP; CV-1 cells co-transfected with FLAG-TRβ1 and 6myc-TEAD-1, with or without 1 µM T3 for 24 h; high-salt extract incubated with anti-FLAG M2 affinity gel in 150 mM NaCl, 20 mM Tris HCl pH 7.5, 0.3% Nonidet P-40 at 4°C overnight; Western blot with anti-c-myc
[2] = target: glutathione S-transferase fused to the TEA domain of mouse TEAD-1 (GST-TEA) (mouse) (UniProt P30051); experiment: pull-down; GST fusion protein on glutathione-Sepharose beads incubated with 35S-labeled in vitro translated protein in 150 mM NaCl, 20 mM Tris HCl pH 7.5, 0.3% Nonidet P-40, 1 mM dithiothreitol for 3 h at 4°C; with or without 1 µM T3 for TRα1 and TRβ1; autoradiography; only the target purified

| Molecule | binding [1] | binding [2] |
| --- | --- | --- |
| N-terminal six tandem myc-tagged mouse TEAD-1 (6myc-TEAD-1), expressed in CV-1 cells (from UniProt P30051 1-426) | binds | – |
| B1 | – | binds |
| B2 | – | binds |
